Assay results reported in PubChem BioAssay AID248 (DTP/NCI, 2004).
The list is a part of this screen's results and no random one: it gathers tests that were run many times, whatever their T/C, doses with no T/C, and many T/C values between a quarter and a half above the control. Other doses and runs of a compound stand elsewhere. T/C gives the treated animals as a percentage of the vehicle group. Some entries give survivors of the animals treated and no T/C: the source files T/C as zero there, which appears to mark a toxic dose or a test without result, not a measured value. Some survivor counts are full or nearly so, which does not show that the dose was tolerated: survival well below the control is almost never listed, so the zero probably covers shortened survival too. Counts of survivors are from the toxicity check (mostly the fifth day) where no day follows; animals may have died later. Schedule codes are those of the source, read here as Q, the interval in days (D) or hours (H), X, the number of doses. Some schedules carry Z or #; the key to these is not given. For survival time, this PubChem deposit counts one and a half times the control or more as active, and values a quarter to a half above the control carry no call in these data; other NCI protocols may use other cut-offs. Some entries hold several experiments; the results are listed from low to high. Signs of the kind (2×) say how often a value occurs here. Some T/C values are followed by the survivors on the day toxicity was checked, most often the fifth; without a count, all were alive then.

Test system: L1210 leukemia ip in BDF1 mice, survival T/C
Assay: NCI In Vivo Anticancer Drug Screen. Data for tumor model L1210 Leukemia (intraperitoneal) in B6D2F1 (BDF1) mice
Conditions: T/C endpoint: mean survival time, higher T/C = longer survival
[1] = dose: 100.0 mg/kg/injection, schedule: Q01DX001 (ip), vehicle: saline
[2] = dose: 100.0 mg/kg/injection, schedule: Q04DX003 (ip), vehicle: saline
[3] = dose: 200.0 mg/kg/injection, schedule: Q01DX001 (ip), vehicle: saline
[4] = dose: 200.0 mg/kg/injection, schedule: Q01DX009 (ip), vehicle: saline
[5] = dose: 200.0 mg/kg/injection, schedule: Q04DX003 (ip), vehicle: saline
[6] = dose: 400.0 mg/kg/injection, schedule: Q01DX001 (ip), vehicle: saline
[7] = dose: 400.0 mg/kg/injection, schedule: Q04DX003 (ip), vehicle: saline with Tween-80

CCCC(=O)OCC1OC(n2cnc3c(=S)nc[nH]c32)C(OC(=O)CCC)C1OC(=O)CCC (stereo unspecified)
T/C (dose: 12.5 mg/kg/injection, schedule: Q01DX009 (ip), vehicle: saline with Tween-80): 138 % of control | T/C (dose: 12.5 mg/kg/injection, schedule: Q01DX Z (ip), vehicle: other): 135 % of control | T/C (dose: 19.0 mg/kg/injection, schedule: Q04DX003 (ip), vehicle: saline): 127 % of control | T/C (dose: 25.0 mg/kg/injection, schedule: Q01DX009 (ip), vehicle: saline): 131 % of control | T/C (dose: 29.0 mg/kg/injection, schedule: Q04DX003 (ip), vehicle: saline): 130 % of control | T/C (dose: 44.0 mg/kg/injection, schedule: Q01DX Z (ip), vehicle: carboxymethylcellulose (CMC)): 133 % of control | T/C (dose: 50.0 mg/kg/injection, schedule: Q01DX001 (ip), vehicle: saline): 128 % of control | T/C (dose: 50.0 mg/kg/injection, schedule: Q01DX009 (ip), vehicle: saline): 138 % of control | T/C (dose: 50.0 mg/kg/injection, schedule: Q04DX003 (ip), vehicle: saline): 135 % of control | T/C (dose: 67.0 mg/kg/injection, schedule: Q01DX Z (ip), vehicle: carboxymethylcellulose (CMC)): 141 % of control | T/C [1]: 141 and 145 % of control | T/C (dose: 100.0 mg/kg/injection, schedule: Q01DX009 (ip), vehicle: saline): 136 % of control | T/C (dose: 100.0 mg/kg/injection, schedule: Q01DX Z (ip), vehicle: carboxymethylcellulose (CMC)): 143 % of control | survivor count (dose: 100.0 mg/kg/injection, schedule: Q01DX Z (ip), vehicle: other): 5 of 6 | T/C (dose: 100.0 mg/kg/injection, schedule: Q04DX003 (ip), vehicle: acetone): 132 % of control | T/C [2]: 143 % of control | T/C (dose: 132.0 mg/kg/injection, schedule: Q01DX001 (ip), vehicle: saline): 131 and 137 % of control | T/C (dose: 132.0 mg/kg/injection, schedule: Q04DX003 (ip), vehicle: acetone): 142 % of control | T/C (dose: 132.0 mg/kg/injection, schedule: Q04DX003 (ip), vehicle: saline): 138 % of control | T/C (dose: 150.0 mg/kg/injection, schedule: Q01DX Z (ip), vehicle: carboxymethylcellulose (CMC)): 133 % of control | T/C [3]: 137 (2×), 141, 151 % of control | survivor count [4]: 6 of 6 | survivor count (dose: 200.0 mg/kg/injection, schedule: Q01DX Z (ip), vehicle: other): 2 of 6 | T/C (dose: 200.0 mg/kg/injection, schedule: Q04DX003 (ip), vehicle: acetone): 142 and 145 % of control | T/C [5]: 136 % of control [5 of 6 alive] | T/C (dose: 300.0 mg/kg/injection, schedule: Q01DX001 (ip), vehicle: saline): 136 % of control | T/C (dose: 300.0 mg/kg/injection, schedule: Q04DX003 (ip), vehicle: acetone): 140 % of control | T/C (dose: 300.0 mg/kg/injection, schedule: Q04DX003 (ip), vehicle: saline): 140 % of control | T/C [6]: 136 % of control | survivor count (dose: 400.0 mg/kg/injection, schedule: Q01DX Z (ip), vehicle: other): 3 of 6 | T/C (dose: 400.0 mg/kg/injection, schedule: Q04DX003 (ip), vehicle: acetone): 138 % of control | survivor count (dose: 800.0 mg/kg/injection, schedule: Q01DX Z (ip), vehicle: other): 0 of 6

O=C1C(Br)=CC(=C2C=C(Br)C(=O)C(Br)=C2)C=C1Br
survivor count (dose: 400.0 mg/kg/injection, schedule: Q04DX003 (ip), vehicle: Klucel (hydroxypropylcellulose) (HPC)): 5 of 6

OB1[O][Sn]([c]2ccccc2)([c]2ccccc2)[O]1
survivor count (dose: 100.0 mg/kg/injection, schedule: Q04DX002 (ip), vehicle: saline with Tween-80): 1 of 3 | survivor count (dose: 200.0 mg/kg/injection, schedule: Q04DX002 (ip), vehicle: saline with Tween-80): 0 of 3 | survivor count (dose: 400.0 mg/kg/injection, schedule: Q04DX002 (ip), vehicle: saline with Tween-80): 0 of 3

CN(C)CCCN1c2ccccc2C(C)(C)c2ccccc21
survivor count (dose: 200.0 mg/kg/injection, schedule: Q01DX009 (ip), vehicle: saline with Tween-80): 3 of 6 | survivor count [4]: 3 of 6 | survivor count [6]: 0 of 4 | survivor count (dose: 400.0 mg/kg/injection, schedule: Q01DX009 (ip), vehicle: saline): 0 of 6 | survivor count [7]: 0 of 6

COc1ccc2c(c1)[nH]c1c(C)nccc12
survivor count (dose: 450.0 mg/kg/injection, schedule: Q01DX Z (ip), vehicle: saline): 1 of 6

CC=C1C(C(=O)O)C1C(=O)O (stereo unspecified)
survivor count (dose: 200.0 mg/kg/injection, schedule: Q01DX009 (ip), vehicle: Klucel (hydroxypropylcellulose) (HPC)): 1 of 6 | survivor count (dose: 400.0 mg/kg/injection, schedule: Q01DX009 (ip), vehicle: Klucel (hydroxypropylcellulose) (HPC)): 1 of 6

CCN=C(c1ccc(NC(=O)c2ccc(C(=O)Nc3ccc(C(=NCC)N(CC)C(=O)NCC(=O)OCC)cc3)cc2)cc1)N(CC)C(=O)NCC(=O)OCC
T/C (dose: 6.25 mg/kg/injection, schedule: Q01DX015 (ip), vehicle: methylcellulose (MC)): 129 % of control | survivor count (dose: 50.0 mg/kg/injection, schedule: Q01DX015 (ip), vehicle: methylcellulose (MC)): 0 of 6 | survivor count (dose: 100.0 mg/kg/injection, schedule: Q01DX015 (ip), vehicle: methylcellulose (MC)): 0 of 6 | survivor count (dose: 200.0 mg/kg/injection, schedule: Q01DX015 (ip), vehicle: methylcellulose (MC)): 0 of 6 | survivor count (dose: 400.0 mg/kg/injection, schedule: Q01DX015 (ip), vehicle: methylcellulose (MC)): 0 of 6

O=C(Nc1ccc(C2=NCCN2)cc1)c1ccc([N+](=O)[O-])c(C(=O)Nc2ccc(C3=NCCN3)cc2)c1
T/C (dose: 38.0 mg/kg/injection, schedule: Q01DX Z (ip), vehicle: carboxymethylcellulose (CMC)): 139 % of control | survivor count (dose: 76.0 mg/kg/injection, schedule: Q01DX Z (ip), vehicle: carboxymethylcellulose (CMC)): 0 of 6

CCC1(c2ccccc2)C(=O)NC(=S)N(C)C1=O (stereo unspecified)
survivor count (dose: 300.0 mg/kg/injection, schedule: Q01DX001 (ip), vehicle: other): 0 of 6

OCC#CCO
survivor count (dose: 12.0 mg/kg/injection, schedule: Q01DX009 (ip), vehicle: other): 0 of 6 | survivor count (dose: 25.0 mg/kg/injection, schedule: Q01DX009 (ip), vehicle: other): 0 of 6 | survivor count (dose: 100.0 mg/kg/injection, schedule: Q01DX001 (ip), vehicle: carboxymethylcellulose (CMC)): 0 of 4 | survivor count [2]: 1 of 6 | survivor count (dose: 200.0 mg/kg/injection, schedule: Q01DX001 (ip), vehicle: carboxymethylcellulose (CMC)): 0 of 4 | survivor count [5]: 0 of 6 | survivor count (dose: 400.0 mg/kg/injection, schedule: Q01DX001 (ip), vehicle: carboxymethylcellulose (CMC)): 0 of 4 | survivor count (dose: 400.0 mg/kg/injection, schedule: Q04DX003 (ip), vehicle: saline): 0 of 6

CCCCNCC#N
survivor count [1]: 1 of 4 | survivor count [3]: 0 of 4 | survivor count [6]: 0 of 4

O=C(O)c1cc(=O)[nH]c(=O)[nH]1
survivor count (dose: 200.0 mg/kg/injection, schedule: Q04DX002 (ip), vehicle: Klucel (hydroxypropylcellulose) (HPC)): 1 of 3 | survivor count (dose: 400.0 mg/kg/injection, schedule: Q04DX002 (ip), vehicle: Klucel (hydroxypropylcellulose) (HPC)): 1 of 3

O=C(O/N=C(\C(=O)c1ccccc1)c1ccccc1)c1ccc(Br)cc1
survivor count [7]: 6 of 6
